Measured values: paper PMC11236118
Results are given in words; binding and its absence hold for the method and conditions named. Some entries that bind do so weakly or less than the wild type.

Chains of the proteins cited; added tags and fusions are not shown. Residues count along the entry.
UniProt Q29443, residues 20-704: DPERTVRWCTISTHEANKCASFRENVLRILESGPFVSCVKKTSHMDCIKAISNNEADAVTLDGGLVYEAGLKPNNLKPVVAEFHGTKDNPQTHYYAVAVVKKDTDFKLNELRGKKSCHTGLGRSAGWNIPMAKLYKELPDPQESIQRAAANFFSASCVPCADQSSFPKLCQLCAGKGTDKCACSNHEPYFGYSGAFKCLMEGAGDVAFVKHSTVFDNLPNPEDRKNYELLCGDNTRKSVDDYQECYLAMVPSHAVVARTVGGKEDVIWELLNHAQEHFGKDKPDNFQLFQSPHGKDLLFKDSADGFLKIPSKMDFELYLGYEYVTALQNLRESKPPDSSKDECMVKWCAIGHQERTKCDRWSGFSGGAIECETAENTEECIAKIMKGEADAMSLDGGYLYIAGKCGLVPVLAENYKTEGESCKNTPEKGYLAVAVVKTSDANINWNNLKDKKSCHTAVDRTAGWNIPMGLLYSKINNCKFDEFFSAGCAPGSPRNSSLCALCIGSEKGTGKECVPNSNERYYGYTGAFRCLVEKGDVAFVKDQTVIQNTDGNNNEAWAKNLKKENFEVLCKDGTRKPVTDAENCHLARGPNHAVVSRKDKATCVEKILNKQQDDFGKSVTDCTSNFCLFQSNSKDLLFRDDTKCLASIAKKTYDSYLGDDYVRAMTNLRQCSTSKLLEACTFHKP

How the values were obtained:
Test in all cases: binding of FITC-holotransferrin to cells, fluorescence measured after Pronase digestion; 10^8 washed cells with 100 ug FITC-holotransferrin (bovine) in TDB on ice for 15 minutes, washed; read out as sites/cell; only the binder purified
[1] = molecular target: Transferrin receptor (ESAG6/ESAG7) on TbGT15^-/- (TbGnTII) null mutant cells (Trypanosoma brucei brucei (endogenous in bloodstream form mutant cells)) (UniProt Q8WPU1)
[2] = molecular target: Transferrin receptor (ESAG6/ESAG7) on TbGT11^-/- (TbGnTI) null mutant cells (Trypanosoma brucei brucei (endogenous in bloodstream form mutant cells)) (UniProt Q8WPU1)
[3] = molecular target: Transferrin receptor (ESAG6/ESAG7) on TbGT10^-/- null mutant cells (Trypanosoma brucei brucei (endogenous in bloodstream form mutant cells)) (UniProt Q8WPU1)

Measured: binding

FITC-holotransferrin (bovine) (from UniProt Q29443 20-704) (ligand)
binds: all assays above
